Measured values: paper PMC5996148
Where “and” joins values, the source holds several entries; their conditions need not be identical. Equal entries are not always repeated. Some of the results follow.

How the values were obtained:
Assay in all cases: protein microarray (ProtoArray v5.0), streptavidin-Alexa Fluor 647
Settings in all cases: 3'-biotin; 20 mM Tris (pH 7.5), 5 mM MgCl2, 100 mM KCl, 0.1% Tween-20, A/T-rich and random oligonucleotide blockers; temperature not stated; high values mean tight binding
[1] = tested on: Inhibitor of growth protein 4 (human)
[2] = tested on: Inorganic pyrophosphatase 2, mitochondrial (human)
[3] = tested on: Interferon alpha-1/13 (human)
[4] = tested on: Interferon alpha-4 (human)
[5] = tested on: Interferon-induced guanylate-binding protein 2 (human)
[6] = tested on: Interleukin-1 receptor antagonist protein (human)
[7] = tested on: Interleukin-18-binding protein (human)
[8] = tested on: Interleukin-22 (human)
[9] = tested on: Interleukin-24 (human)
[10] = tested on: Jouberin (human)
[11] = tested on: Junction plakoglobin (human)
[12] = tested on: Junctional adhesion molecule C (human)
[13] = tested on: KCNIP1 (human)
[14] = tested on: KCNIP2 (human)
[15] = tested on: KCNK7 (human)
[16] = tested on: KCNS2 (human)
[17] = tested on: KEL (human)
[18] = tested on: KHK (human)
[19] = tested on: KIAA0174 (human)
[20] = tested on: KIAA0513 (human)

Sequence: GGTGACAGGGGTATGGGGAGGGG [G4-2 biotinylated (Ct1)]
- binding signal [1]: -0.399 z-score
- binding signal [2]: -0.364 z-score
- binding signal [3]: -0.38 z-score
- binding signal [4]: -0.391 z-score and -0.372 z-score
- binding signal [5]: -0.393 z-score
- binding signal [6]: -0.359 z-score
- binding signal [7]: -0.395 z-score
- binding signal [8]: -0.367 z-score
- binding signal [9]: -0.38 z-score
- binding signal [10]: 3.45 z-score
- binding signal [11]: -0.378 z-score
- binding signal [12]: -0.386 z-score
- binding signal [13]: -0.397 z-score
- binding signal [14]: -0.4 z-score and -0.382 z-score and -0.399 z-score
- binding signal [15]: -0.382 z-score
- binding signal [16]: -0.377 z-score
- binding signal [17]: -0.359 z-score
- binding signal [18]: -0.4 z-score
- binding signal [19]: -0.401 z-score
- binding signal [20]: -0.37 z-score
